No constants are given. Whether binding was seen depends on the method and setting. Binding seen in cells or lysates may run through a third protein. Some binding calls cover weakened binding; strength is not graded here. For part of these data: Sequences can lack the tags named with a protein.
T1: FLAG-WT PACT (UniProt O75569)
T1 sequence: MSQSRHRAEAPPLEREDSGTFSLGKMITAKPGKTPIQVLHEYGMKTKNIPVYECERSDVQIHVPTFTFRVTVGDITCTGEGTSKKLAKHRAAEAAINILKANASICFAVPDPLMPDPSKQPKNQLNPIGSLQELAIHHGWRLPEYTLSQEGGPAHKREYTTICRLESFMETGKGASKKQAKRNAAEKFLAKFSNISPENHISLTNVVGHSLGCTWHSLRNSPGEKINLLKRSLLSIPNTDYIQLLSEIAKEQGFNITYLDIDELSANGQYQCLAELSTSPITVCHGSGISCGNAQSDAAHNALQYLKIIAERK

Protein sequences, listed by entry. Tags and fused reporters are not part of them.
UniProt P19525: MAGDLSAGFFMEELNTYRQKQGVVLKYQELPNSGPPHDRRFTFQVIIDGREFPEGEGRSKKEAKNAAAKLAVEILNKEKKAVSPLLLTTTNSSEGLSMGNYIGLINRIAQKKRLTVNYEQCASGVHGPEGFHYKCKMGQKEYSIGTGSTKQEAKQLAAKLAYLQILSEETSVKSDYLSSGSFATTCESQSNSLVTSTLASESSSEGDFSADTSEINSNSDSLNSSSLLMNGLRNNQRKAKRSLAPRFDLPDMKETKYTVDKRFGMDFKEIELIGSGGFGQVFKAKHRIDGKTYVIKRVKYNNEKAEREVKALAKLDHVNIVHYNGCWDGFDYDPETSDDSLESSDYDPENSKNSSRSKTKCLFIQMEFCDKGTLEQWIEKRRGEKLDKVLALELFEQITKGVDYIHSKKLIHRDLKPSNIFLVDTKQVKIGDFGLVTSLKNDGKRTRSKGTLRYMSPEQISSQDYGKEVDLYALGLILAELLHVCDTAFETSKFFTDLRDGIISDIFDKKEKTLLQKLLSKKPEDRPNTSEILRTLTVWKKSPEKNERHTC

B1: PKR-activating protein (PACT), endogenous in MEFs (protein, UniProt Q9WTX2 1-313)
chain: MSHSRHRAEAPPLQREDSGTFSLGKMITAKPGKTPIQVLHEYGMKTKNIPVYECERSDVQVHVPTFTFRVTVGDITCTGEGTSKKLAKHRAAEAAINILKANASICFAVPDPLMPDPSKQPKNQLNPIGSLQELAIHHGWRLPEYTLSQEGGPAHKREYTTICRLESFMETGKGASKKQAKRNAAEKFLAKFSNISPENHISLTNVVGHSLGCTWHSLRNSPGEKINLLKRSLLSLPNTDYIQLLSEIASEQGFNITYLDIEELSANGQYQCLAELSTSPITVCHGSGISCGNAQSDAAHNALQYLKIIAERK
B2: PKR, endogenous in PACT KO MEFs (enzyme, UniProt Q03963 1-515)
chain: MASDTPGFYMDKLNKYRQMHGVAITYKELSTSGPPHDRRFTFQVLIDEKEFPEAKGRSKQEARNAAAKLAVDILDNENKVDCHTSASEQGLFVGNYIGLVNSFAQKKKLSVNYEQCEPNSELPQRFICKCKIGQTMYGTGSGVTKQEAKQLAAKEAYQKLLKSPPKTAGTSSSVVTSTFSGFSSSSSMTSNGVSQSAPGSFSSENVFTNGLGENKRKSGVKVSPDDVQRNKYTLDARFNSDFEDIEEIGLGGFGQVFKAKHRIDGKRYAIKRVKYNTEKAEHEVQALAELNHVNIVQYHSCWEGVDYDPEHSMSDTSRYKTRCLFIQMEFCDKGTLEQWMRNRNQSKVDKALILDLYEQIVTGVEYIHSKGLIHRDLKPGNIFLVDERHIKIGDFGLATALENDGKSRTRRTGTLQYMSPEQLFLKHYGKEVDIFALGLILAELLHTCFTESEKIKFFESLRKGDFSNDIFDNKEKSLLKKLLSEKPKDRPETSEILKTLAEWRNISEKKKRNTC

Tests used:
[1] = biological target: FLAG-tagged human PKR (human) (UniProt P19525); assay: condition: only unstressed or low-intensity stress (500 mOsm sucrose or 5% w/v DSS); co-IP; FLAG antibody on lysates of PKR KO MEFs reconstituted with FLAG-tagged human PKR; cells unstressed or in low-intensity stress (500 mOsm sucrose or 5% w/v DSS, 3 hr); RIPA buffer, Protein A/G Dynabeads, 4° C; western blot
[2] = biological target: FLAG-tagged human PKR (human) (UniProt P19525); assay: co-IP; FLAG antibody on lysates of PKR KO MEFs reconstituted with FLAG-tagged human PKR; cells treated 3 hr with high-intensity stress (600 mOsm sucrose or 10% w/v DSS); RIPA buffer, Protein A/G Dynabeads, 4° C; western blot
FLAG-WT PACT = biological target: T1, FLAG-WT PACT; assay: co-IP; FLAG antibody on extracts of PACT KO MEFs reconstituted with FLAG-WT or mutant PACT; cells treated with 600 mOsm sucrose for 3 hr; RIPA buffer; western blot

Row | Binder | binding [1] | binding [2] | binding (FLAG-WT PACT)
1 | B1 | no binding | binds | –
2 | B2 | – | – | binds

— PMC7145421
